# Experimental data as given in PubChem BioAssay (Tox21).
# Amino acid sequences for entries named in this document (tags omitted). A change or cut given only in a name is not applied to a line headed by its entry.
# UniProt P19793: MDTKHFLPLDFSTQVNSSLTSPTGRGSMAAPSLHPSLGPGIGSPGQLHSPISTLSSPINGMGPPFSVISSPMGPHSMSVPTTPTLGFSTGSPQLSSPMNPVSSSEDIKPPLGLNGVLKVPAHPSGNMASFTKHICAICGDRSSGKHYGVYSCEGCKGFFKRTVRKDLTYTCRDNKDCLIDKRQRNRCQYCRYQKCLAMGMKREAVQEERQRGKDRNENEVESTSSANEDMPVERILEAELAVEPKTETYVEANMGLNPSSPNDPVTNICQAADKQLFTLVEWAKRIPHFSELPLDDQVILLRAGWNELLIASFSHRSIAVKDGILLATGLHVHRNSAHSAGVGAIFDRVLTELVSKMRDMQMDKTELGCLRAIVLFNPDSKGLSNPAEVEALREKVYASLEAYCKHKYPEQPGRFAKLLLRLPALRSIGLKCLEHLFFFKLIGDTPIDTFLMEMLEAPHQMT
# Values joined by “and” are separate entries in the source; they are usually repeats but may differ in a detail not shown here. Identical values can stand only once. Inconclusive results, whose numbers are uncertain, are shown with a selection of clear calls. A potency beside an inconclusive call is a rough fit, not a confirmed value. Active and inactive are the calls of the source. Calls come from the whole dose curve.
# Biological target: Retinoic acid receptor RXR-alpha (Homo sapiens) (UniProt P19793)
# Test: qHTS assay to identify small molecule agonists of the RXR signaling pathway (AID 1159527); note: nearly all actives have a fitted effect of over 35% in size
# Conditions: HEK293T RXRa-UAS-bla, beta-lactamase ratio, 16 h; activation: at 76.8 µM (top of the series) unless noted
# Method in brief: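 Fluorescence ratio readout (460 vs 530 nm) from GeneBLAzer RXR-alpha HEK 293T cells after 16 hr compound treatment; cells seeded 5 hr beforehand in low-serum, charcoal-stripped medium.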
# % is set by controls: 0 for no effect and ±100 for the full control effect; potency is the fitted concentration of half-maximal effect.
SMILES,Potency,activation
CCCCSCCCC,active: 21.9 µM,–
CC(=O)OCCC(C)C,inactive,–
C[C@]12CCC(=O)C=C1CC[C@@H]1[C@@H]2CC[C@@]2(C)[C@H]1CC[C@]2(O)C(=O)CO,"inconclusive: 23.9 µM [rising, partial curve]",–
Nc1cnn([C@@H]2O[C@H](CO)[C@@H](O)[C@H]2O)c(=O)n1,–,inconclusive: 5.22%
CC(C)(O)Cc1ccccc1,–,inconclusive: 0.212%
CCOc1ccc(NS(=O)(=O)c2ccc(N)cc2)nn1,–,inactive: 6.86% [at 35.3 µM]
Cc1c(-c2ccccc2)oc2c(C(=O)OCCN3CCCCC3)cccc2c1=O,"inconclusive: 9.52 µM [rising, partial curve, poor fit]",–
CC(=O)Nc1ccccc1,inactive,–
CCCCCCCCCCCCc1ccccc1,–,inconclusive: 14.9% and inconclusive: 17.4%
CCCCCCCCCCOS(=O)(=O)O,"inconclusive: 43.5 µM [inhibitor, partial curve, poor fit]",–
C=C(C)C(=O)OC1CC(C)CC(C)(C)C1 (stereo unspecified),–,inactive: 3.96%
Cc1ccc(S)cc1,"inconclusive: 11 µM [rising, partial curve, poor fit]",–
Cc1ccc(/C=N/n2c(-c3ccccc3)csc2=S)cc1,inconclusive: 9.52 µM [inhibitor],–
CC(C)(N)CO,"inconclusive: 54.7 µM [activator, single point]",–
NCC(=O)O,–,inactive: -2.92% [at 15.8 µM]
CCC(O)OCCCOC (stereo unspecified),"inactive and inconclusive: 24.5 µM [activator, partial curve]",–
